Test results taken from patent publication US20220089663A1 (MEMORIAL SLOAN KETTERING CANCER CENTER, priority 2019, published 2022).

Test: general procedure: Fmoc solid-phase peptide synthesis; Rink-amide resin
Details: conjugation step

Q: Which conjugation yield (from Hs1a peptide) does the source give for “GNDCLGFWSACNPK(Cy7.5)NDKCCANLVCSSKHKWCKGKL” here?
A: 14%

Q: What does the source list for “YCQK(BODIPY)FLWTCDSERPCCEGLVCRLWCKIN-NH2”?
A: final HPLC purity (analytical RP-HPLC, area under the curve, several disulfide bridges, sequence written open): 83%; conjugation yield (from Hsp1a peptide, several disulfide bridges, sequence written open): 55%
